No constants are given. Whether binding was seen depends on the method and setting. In cells and extracts the contact can be indirect. A yes stands for co-enrichment or nearness to the bait. Other partners may have been found. For some assays here: Tags and fused reporters may be left off the sequences shown.

Amino acid sequences for entries named in this document (tags omitted).
UniProt P70288: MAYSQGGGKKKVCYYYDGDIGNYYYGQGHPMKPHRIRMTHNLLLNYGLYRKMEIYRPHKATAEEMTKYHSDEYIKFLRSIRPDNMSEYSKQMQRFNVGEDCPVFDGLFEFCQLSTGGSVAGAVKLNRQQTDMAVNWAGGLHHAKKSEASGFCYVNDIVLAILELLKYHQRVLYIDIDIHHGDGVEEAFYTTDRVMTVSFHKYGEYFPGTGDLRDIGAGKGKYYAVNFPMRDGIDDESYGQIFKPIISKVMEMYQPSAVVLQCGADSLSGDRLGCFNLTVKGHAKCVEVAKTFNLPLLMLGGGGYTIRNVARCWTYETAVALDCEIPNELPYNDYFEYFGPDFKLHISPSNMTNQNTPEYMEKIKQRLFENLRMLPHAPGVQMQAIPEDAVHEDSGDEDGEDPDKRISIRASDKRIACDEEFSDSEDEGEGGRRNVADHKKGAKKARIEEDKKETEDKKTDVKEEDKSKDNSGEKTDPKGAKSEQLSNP
UniProt O09106: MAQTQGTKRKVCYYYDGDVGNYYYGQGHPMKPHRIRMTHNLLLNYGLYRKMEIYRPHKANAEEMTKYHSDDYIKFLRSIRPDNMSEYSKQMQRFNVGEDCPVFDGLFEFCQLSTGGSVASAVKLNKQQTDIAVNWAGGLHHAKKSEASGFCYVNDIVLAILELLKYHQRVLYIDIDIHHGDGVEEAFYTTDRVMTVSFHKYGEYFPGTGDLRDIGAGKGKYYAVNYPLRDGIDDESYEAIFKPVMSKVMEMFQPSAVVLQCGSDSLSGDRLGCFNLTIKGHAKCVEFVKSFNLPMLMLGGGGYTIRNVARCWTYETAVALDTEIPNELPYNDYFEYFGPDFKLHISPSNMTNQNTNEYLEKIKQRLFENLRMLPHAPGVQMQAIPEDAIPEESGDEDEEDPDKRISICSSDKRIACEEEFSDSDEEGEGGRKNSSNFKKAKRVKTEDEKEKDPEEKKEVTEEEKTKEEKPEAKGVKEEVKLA

Experiment [1] deals with T1, ZFP541-EGFP (zinc finger protein 541 with C-terminal EGFP, knock-in) (mouse (endogenous locus, knock-in, in testis)) (UniProt Q0GGX2).
T1 sequence: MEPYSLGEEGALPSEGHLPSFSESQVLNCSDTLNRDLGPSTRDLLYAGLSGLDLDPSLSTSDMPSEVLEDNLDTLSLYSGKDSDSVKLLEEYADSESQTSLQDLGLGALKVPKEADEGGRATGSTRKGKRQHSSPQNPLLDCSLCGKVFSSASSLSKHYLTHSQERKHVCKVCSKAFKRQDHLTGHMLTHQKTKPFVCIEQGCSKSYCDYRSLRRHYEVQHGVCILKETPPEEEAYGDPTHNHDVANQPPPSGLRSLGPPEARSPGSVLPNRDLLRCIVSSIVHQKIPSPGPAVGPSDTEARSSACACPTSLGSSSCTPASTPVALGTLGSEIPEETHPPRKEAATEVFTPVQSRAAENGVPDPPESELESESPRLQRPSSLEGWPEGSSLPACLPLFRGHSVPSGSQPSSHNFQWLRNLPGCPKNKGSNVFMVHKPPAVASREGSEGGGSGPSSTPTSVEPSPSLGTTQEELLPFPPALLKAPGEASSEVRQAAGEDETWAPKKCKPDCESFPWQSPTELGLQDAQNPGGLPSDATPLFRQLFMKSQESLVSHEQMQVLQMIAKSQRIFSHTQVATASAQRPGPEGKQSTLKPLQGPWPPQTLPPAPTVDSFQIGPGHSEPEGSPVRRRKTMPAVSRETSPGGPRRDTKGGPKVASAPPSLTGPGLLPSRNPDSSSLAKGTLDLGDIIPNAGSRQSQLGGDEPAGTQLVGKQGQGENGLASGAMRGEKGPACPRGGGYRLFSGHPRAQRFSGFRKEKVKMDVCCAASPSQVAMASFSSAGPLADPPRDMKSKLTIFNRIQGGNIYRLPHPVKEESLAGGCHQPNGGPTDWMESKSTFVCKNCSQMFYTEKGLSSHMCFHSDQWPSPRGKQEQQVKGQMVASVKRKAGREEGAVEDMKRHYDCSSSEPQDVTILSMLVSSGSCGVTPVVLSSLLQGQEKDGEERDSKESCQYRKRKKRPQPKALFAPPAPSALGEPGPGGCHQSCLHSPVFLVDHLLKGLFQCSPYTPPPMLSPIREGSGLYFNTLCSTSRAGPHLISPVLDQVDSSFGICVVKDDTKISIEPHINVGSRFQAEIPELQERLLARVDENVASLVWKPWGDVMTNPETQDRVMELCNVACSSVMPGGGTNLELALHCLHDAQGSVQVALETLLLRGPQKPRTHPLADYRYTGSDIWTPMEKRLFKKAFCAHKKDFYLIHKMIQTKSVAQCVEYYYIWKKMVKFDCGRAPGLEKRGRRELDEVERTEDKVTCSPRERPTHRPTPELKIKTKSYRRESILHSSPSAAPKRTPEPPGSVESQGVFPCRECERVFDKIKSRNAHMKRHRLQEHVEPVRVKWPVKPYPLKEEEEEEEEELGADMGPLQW
Briefly: affinity purification with mass spectrometry.

Experiment [2] concerns the target T2, potassium channel tetramerization domain containing 19 (KCTD19) (mouse (endogenous in testis)) (UniProt Q562E2).
T2 sequence: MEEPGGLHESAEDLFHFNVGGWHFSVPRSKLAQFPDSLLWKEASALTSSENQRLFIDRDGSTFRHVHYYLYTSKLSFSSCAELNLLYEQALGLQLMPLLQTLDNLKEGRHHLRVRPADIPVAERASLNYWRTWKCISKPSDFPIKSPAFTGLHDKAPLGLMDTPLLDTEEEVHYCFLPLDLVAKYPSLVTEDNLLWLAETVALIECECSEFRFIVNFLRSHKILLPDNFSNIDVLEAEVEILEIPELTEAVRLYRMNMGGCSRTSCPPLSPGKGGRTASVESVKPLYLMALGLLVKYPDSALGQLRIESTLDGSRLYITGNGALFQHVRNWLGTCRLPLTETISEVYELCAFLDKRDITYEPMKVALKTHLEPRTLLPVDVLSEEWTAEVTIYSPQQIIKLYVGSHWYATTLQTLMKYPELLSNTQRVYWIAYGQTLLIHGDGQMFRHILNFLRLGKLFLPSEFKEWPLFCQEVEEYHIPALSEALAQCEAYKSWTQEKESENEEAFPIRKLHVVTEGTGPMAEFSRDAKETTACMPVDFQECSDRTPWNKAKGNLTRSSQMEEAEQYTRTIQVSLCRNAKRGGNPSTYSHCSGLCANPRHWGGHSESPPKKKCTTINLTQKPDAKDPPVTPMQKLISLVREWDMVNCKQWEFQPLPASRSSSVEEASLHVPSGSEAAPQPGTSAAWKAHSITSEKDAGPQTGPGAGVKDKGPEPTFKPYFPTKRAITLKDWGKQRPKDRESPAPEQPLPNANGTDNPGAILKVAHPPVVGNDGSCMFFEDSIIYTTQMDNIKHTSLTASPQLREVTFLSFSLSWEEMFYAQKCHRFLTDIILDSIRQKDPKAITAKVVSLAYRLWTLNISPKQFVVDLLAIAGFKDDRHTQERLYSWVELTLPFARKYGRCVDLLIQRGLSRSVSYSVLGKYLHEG
Nature of the experiment: affinity purification with mass spectrometry.

As to “histone deacetylase 2 (HDAC2) (from UniProt P70288 1-488)”, in experiment [1], the binding result is “binds”.

On to “histone deacetylase 1 (HDAC1) (from UniProt O09106 1-482)”, for which the binding result in experiment [1] is on record as “binds”.

B1: zinc finger protein 541 (ZFP541) (protein, UniProt Q0GGX2 1-1363)
chain: T1 sequence
As for B1, the binding entry in experiment [2] is listed as “binds”.

B2: potassium channel tetramerization domain containing 19 (KCTD19) (protein, UniProt Q562E2 1-927)
chain: T2 sequence
Consider B2, for which the binding entry in experiment [1] is listed as “binds”.

B3: deoxynucleotidyltransferase terminal-interacting protein 1 (DNTTIP1) (protein, UniProt Q99LB0 1-328)
chain: MGATGDTEQPRGPGGAERGGLELGDAGAAGQPVLTNPWNIMIKHRQVQRRGRRSQMTTSFTDPAISMDLLRAVLQPSINEEIQGVFNKYMKFFQKAALNVRDNVGEEVDAEQLIQEACRSCLEQAKLLFSDGEKVIPRLAHELPGIKRGRQAEEESHRGSPIPKKRKGRPPGHVLSNDRAAAGMVWKQKSCEPIRREGPKWDPARLNESTTFVLGSRANKALGMGGTRGRIYIKHPHLFKYAADPQDKHWLAEQHHMRATGGKMAYLLIEEDIRDLAASDDYRGCLDLKLEELKSFVLPSWMVEKMRKYMETLRTENEHRAAEAPPQT
For B3, the binding result in experiment [1] is given as “binds”.

Source of the values: publication doi:10.1101/2021.06.22.449524.
